{"source": "patent WO2014037419A1", "about": "(dated 2014)", "molecular_target": "Recombinant human CD74 73-232 (human)", "assay": "panning and screening of phage library clones on recombinant human CD74 73-232", "note": "These are yes or no findings as the source states them, for the method shown. Binding can be weak; no strength is given.", "data": [{"binder": "NbhCD74n1 (VHH) VHH: QVQLQESGGGLVQPGGSLRLSCAASGFTFSSYWMYWVRQAPGKGLEWVSGINTGGGSTYYADSVKGRFTISRDNAKNTLYLQMNSLKSEDTAVYYCATWAYSDYDPQYDYWGQGTQVTVSS", "values": [{"measurement": "binding", "result": "binds"}]}, {"binder": "NbhCD74n4 (VHH) VHH: QVQLVESGGALVQPGGSLRLSCAASGFSFSSYFMSWVRQAPGKGLEWVSSINSGGGSTYYATSVKGRFTISRDNAKNTLYLQMNSLKPEDTAVYYCTSQDWHYWGKGTQVTVSS", "values": [{"measurement": "binding", "result": "binds"}]}, {"binder": "NbhCD74n5 (VHH) VHH: QVQLQESGGGLVQAGGSLRLSCADSGFTFDDYAIGWFRQAPGKEREGVSCISSSDGSTYYADSVKGRFTISSDNAKNTVYLQMNSLKPEDTAVYYCAALELPGIKWGAETRWDRWAEYDYWGQGTQVTVSS", "values": [{"measurement": "binding", "result": "binds"}]}, {"binder": "NbhCD74n6 (VHH) VHH: QVQLQESGGGLVQPGGSLRLSCAASGFTFSSSAMSWVRQAPGKGLEWVSSIYSYTSNTYYADSVKGRFTISTDNAKNTLYLQMNSLKSEDTAVYYCAYGEDFSSWGQGTQVTVSS", "values": [{"measurement": "binding", "result": "binds"}]}, {"binder": "NbhCD74n9 (VHH) VHH: QVQLVESGGGSVQPGGSLRLSCAASGFTFSSSVMSWVRQAPGKGLEWVSSIYSYSYNTYYADSVKGRFTISTDNAKNTLYLQMNSLKSEDTAVYYCAYGEDFSSWGQGTQVTVSS", "values": [{"measurement": "binding", "result": "binds"}]}]}
